For the assay, the target named is T1, KAT8 (human (endogenous in HEK293T)) (UniProt Q9H7Z6).
T1 sequence: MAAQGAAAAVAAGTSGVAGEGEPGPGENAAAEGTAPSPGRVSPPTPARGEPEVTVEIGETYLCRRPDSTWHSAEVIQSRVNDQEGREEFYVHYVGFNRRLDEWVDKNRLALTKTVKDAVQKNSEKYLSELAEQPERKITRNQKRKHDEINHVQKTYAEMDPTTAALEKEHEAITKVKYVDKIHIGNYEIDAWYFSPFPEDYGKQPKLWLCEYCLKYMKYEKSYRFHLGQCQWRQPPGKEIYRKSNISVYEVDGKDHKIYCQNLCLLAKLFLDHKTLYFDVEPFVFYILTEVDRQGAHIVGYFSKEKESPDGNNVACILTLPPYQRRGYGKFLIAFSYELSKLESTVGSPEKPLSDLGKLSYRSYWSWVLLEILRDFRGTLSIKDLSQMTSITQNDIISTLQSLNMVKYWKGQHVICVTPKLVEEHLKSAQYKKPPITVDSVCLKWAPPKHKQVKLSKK
Nature of the assay: co-IP; HEK293T cell lysates (IP lysis buffer); anti-KAT8 or anti-SEPP1 antibody at 4 °C overnight, Protein A/G agarose, eluates analysed by western blot; normal IgG as negative control.

No constants are given. Whether binding was seen depends on the method and setting. Binding seen in cells or lysates may run through a third protein. Some results given as binding are weak or reduced against the parent protein; the word gives no strength.

B1: Selenoprotein P (SEPP1) (protein, UniProt P49908 20-381)
chain: ESQDQSSLCKQPPAWSIRDQDPMLNSNGSVTVVALLQASUYLCILQASKLEDLRVKLKKEGYSNISYIVVNHQGISSRLKYTHLKNKVSEHIPVYQQEENQTDVWTLLNGSKDDFLIYDRCGRLVYHLGLPFSFLTFPYVEEAIKIAYCEKKCGNCSLTTLKDEDFCKRVSLATVDKTVETPSPHYHHEHHHNHGHQHLGSSELSENQQPGAPNAPTHPAPPGLHHHHKHKGQHRQGHPENRDMPASEDLQDLQKKLCRKRCINQLLCKLPTDSELAPRSUCCHCRHLIFEKTGSAITUQCKENLPSLCSUQGLRAEENITESCQURLPPAAUQISQQLIPTEASASURUKNQAKKUEUPSN
Consider B1, for which the binding entry is “binds”.
